This passage reports cell number change and AC50 results from PubChem BioAssay AID2685 (National Center for Advancing Translational Sciences (NCATS), 2010).

Broadly, the AC50 is the midpoint of the concentration-response curve, whichever way the signal moves. A higher AC50 goes with weaker potency.

This experiment is described as follows: qHTS Assay for Lipid Storage Modulators in Drosophila S3 Cells.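 For cell number change: cells counted by Cell Tracker Red CMTPX staining in the red channel.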 Conditions: BODIPY lipid droplet fluorescence, 18-24 h; for cell number change: measured here: cell count max response, cells fed with added oleic acid. In short, it runs like this: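 Laser-scanning cytometry quantifies lipid droplet accumulation (500–530 nm total intensity; droplet/cell object ratio) in oleic acid-fed (400 uM added) Drosophila S3 cells treated with a concentration series. 20 uM Triacsin C defined 100% inhibition.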

[1] abbreviates: measured here: cell number channel AC50, cells fed with added oleic acid.
Where [2] appears, read: measured here: lipid fluorescence (Fed channel) AC50, cells fed with added oleic acid.

This is one part of the list. These are further read-outs of the screen, such as a control signal, another cell line or another target. No call is given for them. The list favours compounds with an active or inconclusive main result. Potencies come from curve fits of mixed quality, noted in brackets.

For `O=C(Nc1cccc(O)c1)c1noc2c1CCCCC2`, the cell number change is -26.6%. For the same compound, under setting [1], the AC50 was 1.46 µM [falling, partial curve, poor fit]. Also, the AC50 under setting [2] was 6.51 µM [falling, single point].
`CCOc1ccc(S(=O)(=O)N2CCCCC2)cc1NC(=O)CCc1ccc(OC)cc1`: the cell number change is -3.88%. Further, the AC50 under setting [2] is 14.6 µM [falling, partial curve, poor fit].
With `CC1CCN(S(=O)(=O)c2ccc(Br)s2)CC1`, the cell number change was 9.44%.
In the case of `Cc1ccc(/C=N/NC(=S)NC2CCS(=O)(=O)C2)cc1` (centres undefined), the AC50 under setting [1] was 4.11 µM [falling, partial curve, poor fit].
For the compound `Cc1c(C2N3CC4(C)CN2CC(C)(C3)C4=O)c2ccccc2n1C` (centres undefined), the cell number change was -19.1%. Further, the AC50 under setting [2] is 29.1 µM [falling, partial curve].
`Cc1ccc(NC(=O)CSCC(=O)Nc2sccc2C#N)cc1`: under setting [1], the half-maximal activity concentration (AC50) is 3.66 µM [falling, single point].
Take `O=C(Nc1ncc2c(n1)-c1ccccc1OC2)c1cccc([N+](=O)[O-])c1`: the cell number change was found to be 19.3%. For the same compound, under setting [1], the AC50 was 0.058 µM [rising, full curve, poor fit].
Take `COc1cccc(-n2nnc3c(=O)n(CC(=O)N4CCCc5ccccc54)cnc32)c1`: the cell number change turned out to be 38.7%. Under setting [1], the AC50 was 23.1 µM [rising, single point].
Regarding `CC(C)(C)OC(=O)N1CCN(C(=O)c2ncn(Cc3ccccc3)c2C(=O)N2CCN(C(=O)OC(C)(C)C)CC2)CC1`, the cell number change was -31.5%. Moreover, the concentration at half-maximal activity (AC50) under setting [1] was 0.103 µM [falling, full curve, poor fit]. Also, the AC50 under setting [2] was 0.116 µM [falling, full curve, poor fit].
Regarding `CC(C)c1ccc(/C=N/NC(=O)c2ccc(-n3cnnn3)cc2)cc1`, the cell number change came to 23%.
Regarding `CC(=O)c1cccc(NC(=O)C2=CC(c3ccco3)=NS(=O)(=O)N2C)c1`, the AC50 under setting [2] is 29.1 µM [rising, single point].
Regarding `CCOC(=O)Cc1csc(NC(=O)CSc2cc(Cl)ccc2Cl)n1`, the cell number change came to 40.8%. The AC50 under setting [1] was 20.6 µM [rising, single point]. In addition, the AC50 under setting [2] is 20.6 µM [rising, partial curve].
On to `COc1cccc(NC(=O)CSc2nncn2N)c1`, for which the cell number change is -2.51%. For the same compound, under setting [2], the AC50 was 18.4 µM [falling, single point].
Consider `Cc1cc(N2CCN(c3ccccn3)CC2)n2cc(-c3ccccc3)nc2n1`, for which, under setting [1], the AC50 was 0.731 µM [rising, single point].
`CN(CCOc1ccc(-c2ccn(S(=O)(=O)c3c(Cl)cccc3Cl)n2)cc1)c1ccccn1`: the cell number change came out at 8.98%. Also, the AC50 under setting [2] is 0.517 µM [rising, single point].
Turning to `CCN(C(=O)c1cn(C)c(=O)c2cc(OC)c(OC)cc12)c1cc(C)ccc1C`, the cell number change came out at 4.95%. Further, under setting [2], the AC50 was 29.1 µM [falling, single point].
`COc1ccccc1C(=O)O/N=C(\N)c1ccccc1Cl`: the cell number change was 3.81%. The concentration at half-maximal activity (AC50) under setting [2] is 0.82 µM [rising, full curve, poor fit].
Take `CC12CCC(C(=O)N(c3ccccn3)c3ccccn3)(OC1=O)C2(C)C` (centres undefined): the cell number change was 15.3%. In addition, under setting [2], the concentration at half-maximal activity (AC50) is 23.1 µM [falling, partial curve].
For the compound `O=C(CSCc1ccc(Cl)cc1)Nc1ccc2c(c1)OCCO2`, the cell number change stood at 7.73%. Under setting [2], the AC50 was 0.291 µM [rising, partial curve, poor fit].
Take `COc1cc([N+](=O)[O-])ccc1NC(=O)NCc1ccccn1`: the cell number change amounted to 4.96%.
As for `CN(C(=O)CS(=O)(=O)c1cccc(Cl)c1)c1ccccc1`, the cell number change is -18.8%.
Take `CCCCCn1c(C)c2c(OCC)cccc(=O)c2c1C`: the cell number change was found to be 39.8%. Under setting [1], the half-maximal activity concentration (AC50) is 6.51 µM [rising, partial curve]. Besides, under setting [2], the AC50 is 2.06 µM [rising, partial curve, poor fit].
For the compound `COc1ccc(C(=O)Nc2ccc(S(=O)(=O)NC(C)C)cc2)cc1`, the cell number change came to 50.7%. The AC50 under setting [1] is 1.46 µM [rising, full curve]. Moreover, the AC50 under setting [2] is 2.06 µM [rising, partial curve].
In the case of `Cc1ccc(NC(=O)c2sc3nc(N)c(C#N)cc3c2N)cc1`, the cell number change was -33.8%. The AC50 under setting [1] was 11.6 µM [falling, single point]. In addition, the AC50 under setting [2] is 10.3 µM [falling, single point].
Regarding `Cc1ccc(C(=O)O)cc1-n1c(=O)n(Cc2ccccc2)c(=O)c2[nH]cnc21`, the cell number change is -26.4%.
In the case of `CCC(=O)/C=C1\Sc2ccccc2N1CC`, the cell number change worked out at 17.8%. Under setting [2], the AC50 was 9.2 µM [rising, partial curve, poor fit].
`Brc1ccc(-c2cn3ccccc3n2)s1`: the cell number change turned out to be 58.9%. In addition, the AC50 under setting [1] was 4.11 µM [rising, partial curve]. Besides, the AC50 under setting [2] is 2.31 µM [rising, partial curve].
As for `COC(=O)CC1=C(C(=O)OC)C(c2cc(OC)c(OC)cc2OC)C(C#N)=C(N)O1` (centres undefined), the cell number change came to 12.7%. In addition, under setting [2], the AC50 was 0.0326 µM [rising, full curve, poor fit].
With `CC1CC(C)CN(C(=O)c2ccc(NS(=O)(=O)c3ccc4[nH]c(=O)[nH]c4c3)cc2)C1` (centres undefined), the cell number change came out at 16.8%.
In the case of `Cc1cc(Cl)ccc1OC(C)C(=O)OCC(=O)Nc1ccc2[nH]c(=O)[nH]c2c1` (centres undefined), the cell number change was -36.7%. Besides, the AC50 under setting [1] is 29.1 µM [falling, single point]. The AC50 under setting [2] was 0.0058 µM [rising, full curve, poor fit].
With `O=C(O)c1ccccc1C(=O)NC1CCCc2ccccc21` (centres undefined), the cell number change was -12.1%.
As to `O=C(NCCCn1ccnc1)c1ccco1`, the cell number change is -5.7%. Besides, under setting [2], the half-maximal activity concentration (AC50) is 25.9 µM [falling, partial curve].
`Cc1cc(C(=O)NNC(=O)c2c(-c3c(Cl)cccc3Cl)noc2C)no1`: the cell number change is 10%. The AC50 under setting [2] was 0.13 µM [rising, full curve, poor fit].
For `O=S(=O)(Nc1ccccc1Cl)c1ccc(NS(=O)(=O)c2cccs2)cc1`, the cell number change was determined as 14.4%.
Turning to `CN(Cc1ccccc1)C(=O)c1ccccc1NC(=O)c1ccccc1`, the cell number change stood at 9.1%. Moreover, the AC50 under setting [2] is 0.0058 µM [falling, full curve, poor fit].
`Cc1nnc(NC(=O)Cn2c(=O)sc3ccccc32)s1`: the cell number change was -70.2%. Further, under setting [1], the AC50 was 5.8 µM [falling, partial curve, poor fit]. Besides, under setting [2], the AC50 was 10.3 µM [falling, partial curve].
Take `C=CCOc1cccc(C2C(C(=O)c3cc4ccccc4o3)=C(O)C(=O)N2c2cc(C)on2)c1` (centres undefined): the cell number change stood at 8.66%.
For `CCC(C(=O)NCCCN1CC(C)CC(C)C1)n1nc(C)c2sc3ccccc3c2c1=O` (centres undefined), the cell number change is -3.54%. For the same compound, the AC50 under setting [2] is 29.1 µM [rising, single point].
Take `CS(=O)(=O)c1ccc(Cl)c(NC(=O)c2cccc(N3C(=O)CCC3=O)c2)c1`: the cell number change was determined as 14.7%. Under setting [2], the AC50 was 0.13 µM [falling, full curve, poor fit].
In the case of `COCCNC(=O)COc1ccc(C)cc1C`, the cell number change amounted to 2.38%.
Regarding `COc1ccc(Nc2oc(COc3ccccc3OC)nc2C#N)cc1`, the cell number change is 18.6%. Besides, the AC50 under setting [2] was 1.84 µM [rising, partial curve].
As for `CCCCC(=O)Nc1nc(-c2ccc(S(=O)(=O)N3CCOCC3)cc2)cs1`, the cell number change was found to be 4.8%. In addition, under setting [2], the half-maximal activity concentration (AC50) is 16.4 µM [falling, single point].
As to `O=C(NC1=NCCS1)[C@H](Cc1ccccc1)N1C(=O)c2ccccc2C1=O`, the cell number change is 23.8%. Moreover, the concentration at half-maximal activity (AC50) under setting [2] is 0.82 µM [falling, full curve].
For the compound `COc1ccc(CNC(=O)CNC(=O)c2c(C)nn(C)c2Cl)cc1`, the AC50 under setting [2] is 18.4 µM [falling, single point].
As for `CCOC(=O)c1nn(-c2ccc(F)cc2)c(=O)c(C#N)c1C`, the cell number change was -15.8%. Also, the concentration at half-maximal activity (AC50) under setting [2] was 29.1 µM [rising, single point].
On to `COc1nc2c(s1)C(=O)NCCC2`, for which the cell number change was -22.7%. In addition, the concentration at half-maximal activity (AC50) under setting [2] is 18.4 µM [falling, partial curve].
Take `CC(=O)c1ccc(S(=O)(=O)N2CCN(c3nc(-c4cccnc4)nc4ccccc34)CC2)cc1`: the cell number change was -4.79%. The AC50 under setting [2] is 6.51 µM [rising, partial curve, poor fit].
As for `CN(CC(=O)Nc1cccc(F)c1)C(=O)c1ccc(NC2CC2)c([N+](=O)[O-])c1`, the cell number change was found to be 3.64%. The half-maximal activity concentration (AC50) under setting [2] is 0.58 µM [rising, full curve, poor fit].
Turning to `CCOc1ccccc1-n1c(=O)c2ccccc2c2ccccc2c1=O`, the cell number change was -36.4%. Moreover, the AC50 under setting [1] is 2.31 µM [falling, partial curve]. The AC50 under setting [2] was 1.64 µM [falling, partial curve].
Regarding `CN(CC(=O)Nc1cccc(F)c1)C(=O)C1CCN(C(=O)c2ccc(Cl)cc2)CC1`, the cell number change was found to be 8.82%.
On to `O=S(=O)(Nc1ccc2oc(-c3ccccc3)nc2c1)c1ccccc1`, for which the cell number change is -43.7%. The AC50 under setting [1] is 10.3 µM [falling, single point].
As for `O=c1c2c(nc3n1CCS3)c1cc(F)ccc1n2Cc1cc(=O)n2cc(Cl)ccc2n1`, the cell number change turned out to be 14.3%. For the same compound, the AC50 under setting [2] was 6.51 µM [rising, partial curve, poor fit].
Take `COc1ccc(CN2CCN(Cc3cc4ccccc4o3)CC2CCO)cc1C` (centres undefined): the cell number change was -19.2%. The AC50 under setting [2] was 20.6 µM [falling, single point].
As to `Cn1c(=O)cc(SCC(=O)Nc2cccnc2)c2ccccc21`, the cell number change is -32.4%. The AC50 under setting [1] was 3.66 µM [falling, full curve]. In addition, under setting [2], the AC50 was 5.8 µM [falling, single point].
In the case of `CCOc1ccccc1C(=O)Nc1ccc(S(=O)(=O)N2CCOCC2)cc1`, the cell number change was -6.86%. Also, the AC50 under setting [2] was 3.26 µM [rising, partial curve].
Take `COc1ccc(-n2nc3c(N4CCC(C(=O)NCc5cccc(C)c5)CC4)nnc(C)c3c2C)cc1`: the cell number change is -6.46%. Besides, the concentration at half-maximal activity (AC50) under setting [1] is 1.46 µM [rising, full curve, poor fit]. The AC50 under setting [2] is 29.1 µM [falling, single point].
`COc1ccc(C)cc1N(CC(=O)N1CCc2ccccc2C1)S(C)(=O)=O`: the cell number change is -33.7%. Besides, under setting [1], the half-maximal activity concentration (AC50) is 14.6 µM [falling, partial curve, poor fit].
For the compound `CCn1c(/C=N/c2nc3ccccc3n2C)nc2ccccc21`, the cell number change is 8.93%. The concentration at half-maximal activity (AC50) under setting [2] is 18.4 µM [rising, single point].
Turning to `O=C(Nc1ccc(Cl)cc1)N1CCc2[nH]c3ccccc3c2C1`, the cell number change was -11.3%. Further, the AC50 under setting [2] was 29.1 µM [falling, single point].
